This series relates to Hnf4α (Siganus canaliculatus (rabbitfish)). Kind of series: EMSA supershift. Conditions: Hepatocyte nuclear extract, shift abolished by excess unlabeled probe, supershift with Hnf4α antibody; Beyotime Chemiluminescent EMSA Kit per manufacturer; antibody pre-incubated 30 min at 0-4 °C; 4% non-denaturing PAGE; salt and pH not stated; protein in an extract; label: 5' biotin on both strands. For orientation: Mobility shift assays separate free from complexed probe on a gel.

For at least one entry, the source does not settle the construct or the ends of the probe. Where cells or extracts were used, other partners may take part.

For “TCTGCACCCACACTTTGTACTTCACCTCG (double strand) [elovl5 promoter Hnf4α-1 probe (BF/BR)]”, the binding result is “binds”.

Source of the values: PMC6214118.
